This is a selection; strong and weak results do not stand in their true shares. The calls were merged from several studies; some rest on single wells. The list shows a part of the results.
Key:
Conditions in all cases: stereoisomer not certain
[1] = molecular target: T1, OR51I1 (Homo sapiens) (UniProt Q9H343)
T1 sequence (whole entry): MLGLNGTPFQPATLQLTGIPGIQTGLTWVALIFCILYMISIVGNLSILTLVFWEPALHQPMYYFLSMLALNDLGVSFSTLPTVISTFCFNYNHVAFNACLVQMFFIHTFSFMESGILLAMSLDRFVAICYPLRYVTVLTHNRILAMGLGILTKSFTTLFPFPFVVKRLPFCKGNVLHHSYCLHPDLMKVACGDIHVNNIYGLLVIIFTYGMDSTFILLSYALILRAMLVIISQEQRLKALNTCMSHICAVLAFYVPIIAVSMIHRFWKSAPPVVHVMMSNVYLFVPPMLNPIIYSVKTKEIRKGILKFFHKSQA
Outline: (§1)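 Whether a receptor–molecule pair is responsive (active) rests on the original authors' judgment that its measured signal was statistically different from baseline. Pairs without that judgment are non-responsive (inactive). Sources used varied assay methods, commonly transient luciferase assays in mammalian cell lines.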

Chains of the proteins cited; added tags and fusions are not shown. Lines headed by an entry give the natural chain unless they say otherwise; changes in a name come on top.
UniProt Q8NGJ3: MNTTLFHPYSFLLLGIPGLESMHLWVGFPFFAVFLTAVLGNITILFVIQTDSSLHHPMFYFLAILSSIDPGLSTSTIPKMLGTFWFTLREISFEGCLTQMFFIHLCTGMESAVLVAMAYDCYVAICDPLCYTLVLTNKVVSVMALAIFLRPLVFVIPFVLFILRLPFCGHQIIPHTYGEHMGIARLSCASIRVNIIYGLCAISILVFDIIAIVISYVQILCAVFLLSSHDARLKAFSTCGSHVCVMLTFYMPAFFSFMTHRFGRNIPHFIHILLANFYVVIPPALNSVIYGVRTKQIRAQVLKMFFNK
UniProt Q8NGJ4: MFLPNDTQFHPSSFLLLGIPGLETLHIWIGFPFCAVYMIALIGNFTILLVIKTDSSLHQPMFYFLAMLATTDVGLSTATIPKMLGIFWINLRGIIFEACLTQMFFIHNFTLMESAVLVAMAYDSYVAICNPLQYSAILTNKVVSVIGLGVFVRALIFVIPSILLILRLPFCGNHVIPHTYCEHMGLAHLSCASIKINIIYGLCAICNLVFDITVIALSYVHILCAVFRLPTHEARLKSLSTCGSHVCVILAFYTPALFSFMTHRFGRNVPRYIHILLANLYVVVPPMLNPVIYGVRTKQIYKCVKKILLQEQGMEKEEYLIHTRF
UniProt Q8NGH9: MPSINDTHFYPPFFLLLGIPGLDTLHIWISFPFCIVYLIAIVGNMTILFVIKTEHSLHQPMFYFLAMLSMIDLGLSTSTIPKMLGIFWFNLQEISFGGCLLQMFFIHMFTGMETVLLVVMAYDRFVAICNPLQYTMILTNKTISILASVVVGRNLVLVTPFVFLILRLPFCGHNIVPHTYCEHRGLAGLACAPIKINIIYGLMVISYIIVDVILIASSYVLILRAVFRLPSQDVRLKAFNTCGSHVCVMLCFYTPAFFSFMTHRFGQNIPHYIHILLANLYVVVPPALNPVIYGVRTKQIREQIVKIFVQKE
UniProt Q8NH55: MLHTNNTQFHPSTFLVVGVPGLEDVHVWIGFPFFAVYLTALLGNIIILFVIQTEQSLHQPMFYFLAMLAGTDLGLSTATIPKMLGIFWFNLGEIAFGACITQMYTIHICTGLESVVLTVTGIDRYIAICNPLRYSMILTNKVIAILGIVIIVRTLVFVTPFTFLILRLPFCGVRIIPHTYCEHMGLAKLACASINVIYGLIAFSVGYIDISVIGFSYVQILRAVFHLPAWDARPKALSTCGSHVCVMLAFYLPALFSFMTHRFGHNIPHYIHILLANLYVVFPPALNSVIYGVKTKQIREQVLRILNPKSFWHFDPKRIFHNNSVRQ

[2] = molecular target: T2, OR51I2 (Homo sapiens) (UniProt Q9H344)
T2 sequence (whole entry): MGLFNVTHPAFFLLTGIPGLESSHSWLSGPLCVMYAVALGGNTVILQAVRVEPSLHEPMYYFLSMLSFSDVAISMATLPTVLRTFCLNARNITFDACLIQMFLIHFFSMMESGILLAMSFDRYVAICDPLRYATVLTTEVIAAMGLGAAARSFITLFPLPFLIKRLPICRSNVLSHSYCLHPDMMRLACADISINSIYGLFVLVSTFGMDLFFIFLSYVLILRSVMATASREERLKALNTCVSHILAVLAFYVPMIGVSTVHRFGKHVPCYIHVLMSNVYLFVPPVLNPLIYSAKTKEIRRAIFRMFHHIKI
Outline: as §1

[3] = molecular target: T3, OR51L1 (Homo sapiens) (UniProt Q8NGJ5)
T3 sequence (whole entry): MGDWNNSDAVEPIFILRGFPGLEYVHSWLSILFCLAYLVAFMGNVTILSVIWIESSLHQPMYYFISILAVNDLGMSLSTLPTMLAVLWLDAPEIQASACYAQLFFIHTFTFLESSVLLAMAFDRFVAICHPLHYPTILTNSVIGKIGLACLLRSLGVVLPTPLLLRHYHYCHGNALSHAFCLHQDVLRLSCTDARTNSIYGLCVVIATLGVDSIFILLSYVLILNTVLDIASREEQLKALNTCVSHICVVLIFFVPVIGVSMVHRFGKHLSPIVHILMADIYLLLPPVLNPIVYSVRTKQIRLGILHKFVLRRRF
Outline: as §1

[4] = molecular target: T4, OR51S1 (Homo sapiens) (UniProt Q8NGJ8)
T4 sequence (whole entry): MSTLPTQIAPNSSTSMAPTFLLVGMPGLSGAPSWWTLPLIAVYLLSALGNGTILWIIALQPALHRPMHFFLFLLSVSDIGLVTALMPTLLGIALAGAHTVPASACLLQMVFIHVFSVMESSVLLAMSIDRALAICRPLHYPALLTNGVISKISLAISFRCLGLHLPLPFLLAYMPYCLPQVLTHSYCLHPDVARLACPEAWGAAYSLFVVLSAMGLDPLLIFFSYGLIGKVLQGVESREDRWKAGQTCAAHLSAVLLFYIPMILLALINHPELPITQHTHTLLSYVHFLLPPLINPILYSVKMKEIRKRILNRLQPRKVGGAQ
Outline: as §1

[5] = molecular target: T5, OR52A4P (Homo sapiens) (UniProt A6NMU1)
T5 sequence (whole entry): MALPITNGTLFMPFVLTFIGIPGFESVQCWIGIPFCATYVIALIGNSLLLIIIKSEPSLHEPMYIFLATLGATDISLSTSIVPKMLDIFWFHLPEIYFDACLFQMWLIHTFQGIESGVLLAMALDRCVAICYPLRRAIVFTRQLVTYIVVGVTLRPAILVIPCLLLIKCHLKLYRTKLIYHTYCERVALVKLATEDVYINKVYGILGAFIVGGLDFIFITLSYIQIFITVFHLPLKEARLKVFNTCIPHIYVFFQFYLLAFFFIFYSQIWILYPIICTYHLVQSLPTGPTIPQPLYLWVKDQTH
Outline: as §1

[6] = molecular target: T6, OR52A5 (Homo sapiens) (UniProt Q9H2C5)
T6 sequence (whole entry): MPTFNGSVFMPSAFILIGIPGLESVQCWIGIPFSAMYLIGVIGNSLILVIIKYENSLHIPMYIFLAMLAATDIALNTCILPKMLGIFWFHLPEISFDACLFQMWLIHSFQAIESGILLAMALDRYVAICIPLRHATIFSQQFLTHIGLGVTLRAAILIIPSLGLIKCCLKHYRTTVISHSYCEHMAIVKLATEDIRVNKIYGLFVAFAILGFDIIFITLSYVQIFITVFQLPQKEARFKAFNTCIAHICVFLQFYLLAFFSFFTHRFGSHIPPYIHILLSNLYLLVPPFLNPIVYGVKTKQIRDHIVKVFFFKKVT
Outline: as §1

[7] = molecular target: T7, OR52B4 (Homo sapiens) (UniProt Q8NGK2)
T7 sequence (whole entry): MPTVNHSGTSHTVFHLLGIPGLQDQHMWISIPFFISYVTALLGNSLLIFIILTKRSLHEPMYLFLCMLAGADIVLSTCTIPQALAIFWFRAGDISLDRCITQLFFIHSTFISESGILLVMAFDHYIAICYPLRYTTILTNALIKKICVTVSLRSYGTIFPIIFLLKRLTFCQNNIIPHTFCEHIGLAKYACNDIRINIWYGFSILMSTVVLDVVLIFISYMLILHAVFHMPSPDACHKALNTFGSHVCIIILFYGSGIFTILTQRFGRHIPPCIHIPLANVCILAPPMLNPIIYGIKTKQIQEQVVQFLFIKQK
Outline: as §1

[8] = molecular target: T8, OR52D1 (Homo sapiens) (UniProt Q9H346)
T8 sequence (whole entry): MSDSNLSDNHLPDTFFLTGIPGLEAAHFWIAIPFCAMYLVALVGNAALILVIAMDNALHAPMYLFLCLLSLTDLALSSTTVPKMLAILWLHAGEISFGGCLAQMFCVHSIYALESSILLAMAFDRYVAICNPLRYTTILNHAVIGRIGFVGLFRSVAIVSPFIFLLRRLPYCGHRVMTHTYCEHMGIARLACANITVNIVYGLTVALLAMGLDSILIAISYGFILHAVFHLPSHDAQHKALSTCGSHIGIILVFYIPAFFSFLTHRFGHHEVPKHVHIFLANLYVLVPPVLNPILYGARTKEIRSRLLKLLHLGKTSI
Outline: as §1

[9] = molecular target: T9, OR52A1 (Homo sapiens) (UniProt Q9UKL2)
T9 sequence (whole entry): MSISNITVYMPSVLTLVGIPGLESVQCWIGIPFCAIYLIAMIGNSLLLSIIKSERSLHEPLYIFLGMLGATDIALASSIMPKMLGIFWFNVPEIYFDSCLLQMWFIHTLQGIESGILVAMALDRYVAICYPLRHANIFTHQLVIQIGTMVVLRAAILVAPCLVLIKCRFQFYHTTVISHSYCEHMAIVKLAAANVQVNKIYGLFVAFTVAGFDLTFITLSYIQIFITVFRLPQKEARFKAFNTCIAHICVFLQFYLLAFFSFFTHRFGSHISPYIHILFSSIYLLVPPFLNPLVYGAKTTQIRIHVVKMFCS
Outline: as §1

[10] = molecular target: T10, OR52B2 (Homo sapiens) (UniProt Q96RD2)
T10 sequence (whole entry): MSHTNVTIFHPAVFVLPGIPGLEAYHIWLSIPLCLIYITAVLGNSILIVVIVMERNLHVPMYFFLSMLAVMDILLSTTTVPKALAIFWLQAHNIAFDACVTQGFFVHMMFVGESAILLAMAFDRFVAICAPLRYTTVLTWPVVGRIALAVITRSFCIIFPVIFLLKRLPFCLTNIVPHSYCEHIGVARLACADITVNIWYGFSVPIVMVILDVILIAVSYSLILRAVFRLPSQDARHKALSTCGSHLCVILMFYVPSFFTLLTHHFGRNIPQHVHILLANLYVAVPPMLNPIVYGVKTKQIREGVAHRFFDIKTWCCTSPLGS
Outline: as §1

[11] = molecular target: T11, OR51M1 (Homo sapiens) (UniProt Q9H341)
T11 sequence (whole entry): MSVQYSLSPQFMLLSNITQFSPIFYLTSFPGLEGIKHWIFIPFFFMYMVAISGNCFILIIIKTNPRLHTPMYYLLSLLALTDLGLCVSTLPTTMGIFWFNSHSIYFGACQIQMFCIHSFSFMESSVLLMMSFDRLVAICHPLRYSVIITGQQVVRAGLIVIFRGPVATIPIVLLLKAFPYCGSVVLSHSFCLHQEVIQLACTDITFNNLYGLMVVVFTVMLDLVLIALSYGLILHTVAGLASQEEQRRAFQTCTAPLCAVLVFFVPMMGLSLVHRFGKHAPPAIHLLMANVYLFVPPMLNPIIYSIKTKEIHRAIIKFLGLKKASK
Outline: as §1

[12] = molecular target: T12, OR51Q1 (Homo sapiens) (UniProt Q8NH59)
T12 sequence (whole entry): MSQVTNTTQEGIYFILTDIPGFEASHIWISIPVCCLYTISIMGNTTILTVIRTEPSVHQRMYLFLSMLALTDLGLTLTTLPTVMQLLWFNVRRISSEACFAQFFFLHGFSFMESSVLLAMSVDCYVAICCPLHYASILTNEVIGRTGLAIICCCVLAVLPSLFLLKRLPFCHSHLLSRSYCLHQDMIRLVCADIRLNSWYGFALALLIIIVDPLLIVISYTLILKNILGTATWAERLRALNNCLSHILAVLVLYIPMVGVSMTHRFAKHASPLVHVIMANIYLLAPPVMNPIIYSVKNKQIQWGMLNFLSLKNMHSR
Outline: as §1

[13] = molecular target: T13, OR51T1 (Homo sapiens) (UniProt Q8NGJ9)
T13 sequence (whole entry): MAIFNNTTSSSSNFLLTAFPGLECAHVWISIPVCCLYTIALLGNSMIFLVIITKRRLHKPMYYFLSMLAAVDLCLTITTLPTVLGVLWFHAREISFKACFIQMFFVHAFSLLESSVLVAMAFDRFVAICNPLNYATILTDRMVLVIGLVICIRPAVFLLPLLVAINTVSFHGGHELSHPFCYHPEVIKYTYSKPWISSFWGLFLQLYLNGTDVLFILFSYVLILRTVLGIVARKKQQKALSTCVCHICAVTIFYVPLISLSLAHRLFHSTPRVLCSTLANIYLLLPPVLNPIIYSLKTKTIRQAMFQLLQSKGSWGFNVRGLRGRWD
Outline: as §1

[14] = molecular target: T14, OR52B6 (Homo sapiens) (UniProt Q8NGF0)
T14 sequence (whole entry): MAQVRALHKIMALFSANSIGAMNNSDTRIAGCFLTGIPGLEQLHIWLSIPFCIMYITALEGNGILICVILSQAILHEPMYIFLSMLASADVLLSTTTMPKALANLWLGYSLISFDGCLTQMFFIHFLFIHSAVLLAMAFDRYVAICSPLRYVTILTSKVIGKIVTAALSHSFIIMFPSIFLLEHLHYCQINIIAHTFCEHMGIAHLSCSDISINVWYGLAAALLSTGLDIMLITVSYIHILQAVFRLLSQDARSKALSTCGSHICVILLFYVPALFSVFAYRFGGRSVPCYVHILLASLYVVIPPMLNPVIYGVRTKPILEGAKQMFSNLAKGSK
Outline: as §1

[15] = molecular target: OR52E1 (Homo sapiens) (UniProt Q8NGJ3)
Outline: as §1

[16] = molecular target: OR52E2 (Homo sapiens) (UniProt Q8NGJ4)
Outline: as §1

[17] = molecular target: OR52E4 (Homo sapiens) (UniProt Q8NGH9)
Outline: as §1

[18] = molecular target: OR52E5 (Homo sapiens) (UniProt Q8NH55)
Outline: as §1

Measured: odorant receptor agonist call;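 further: active if original authors judged signal statistically different from baseline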

CCCCCCCC=O
active: [8]
inactive: [1] | [2] | [3] | [4] | [5] | [6] | [7]

c1cnccn1
inactive: [1] | [2] | [3] | [4] | [5] | [6] | [7] | [8]

CC(C)=CCCC(C)=CC=O
inactive: [2] | [3] | [4] | [9] | [5] | [7]
active: [1] | [6] | [10] | [8]

CC(C)(C)c1ccc(CCC=O)cc1
inactive: [2] | [3] | [4] | [5] | [6] | [7] | [8]
active: [1]

O=CCc1ccccc1
inactive: [2] | [7] | [8]
active: [1] | [3] | [4] | [5] | [6]

CC(C)C=O
inactive: [1] | [2] | [3] | [4] | [5] | [6] | [7] | [8]

COc1cc(C=O)ccc1O
inactive: [1] | [2] | [3] | [4] | [5] | [6] | [7] | [8]

CCCCCCCCOC(C)=O
inactive: [1] | [2] | [3] | [4] | [5] | [6] | [7] | [8]

CCC=CCCO
inactive: [1] | [2] | [3] | [4] | [5] | [6] | [7] | [8]

CCC1(O)C2(C)CCC(C2)C1(C)C (stereo not drawn)
inactive: [1] | [2] | [3] | [4] | [5] | [6] | [7] | [8]

Two records drawn at random from the list so far, as already listed:
CCC=CCCO
inactive: [1] | [2] | [3] | [4] | [5] | [6] | [7] | [8]

CCCCCCCCOC(C)=O
inactive: [1] | [2] | [3] | [4] | [5] | [6] | [7] | [8]

Going on with the list.

CC(=O)OCC=C(C)CCC=C(C)C
active: [4] | [5] | [6]
inactive: [1] | [2] | [3] | [7] | [8]

CCCCCCCOC(C)=O
inactive: [1] | [2] | [3] | [4] | [5] | [6] | [7] | [8]

COc1ccccc1O
inactive: [1] | [2] | [3] | [4] | [5] | [6] | [7] | [8]

CC12C=CCC1C1CCC3CC(=O)CCC3(C)C1CC2 (stereo not drawn)
inactive: [11] | [12] | [13] | [9] | [10] | [14] | [15] | [16] | [17] | [18]

CCCCCCCCC=O
active: [9]
inactive: [10]
